According to article PMC7177788:
Results are given in words; binding and its absence hold for the method and conditions named. Some entries that bind do so weakly or less than the wild type.

Assays:
[1] = target: T1, IgG Fc binding protein (FCGBP), endogenous in human gastric mucosa (human (endogenous in gastric mucosa)), Q9Y6R7; test: anion-exchange chromatography (co-elution), then agarose gel electrophoresis with Western blot; human gastric corpus E1-extract (MC-577); Resource Q6 column, salt gradient; fractions B3-C4 on 1% AgGE, blots for FCGBP and TFF1; conditions: remark: other sources report otherwise
[2] = target: T1, IgG Fc binding protein (FCGBP), …; test: SEC, then co-migration in agarose gel electrophoresis with Western blot; human gastric corpus extract (MC-383) on Superdex 75 HL; high-molecular-mass fractions B7-B10 on 1% AgGE (0.1% SDS), blots for TFF1 and FCGBP; conditions: remark: other sources report otherwise
[3] = target: T2, gastrokine 2 (GKN2), endogenous in human gastric mucosa (human (endogenous in gastric mucosa)) (UniProt Q86XP6); test: anion-exchange chromatography, then non-reducing SDS-PAGE with Western blot and LC-ESI-MS/MS of bands; human gastric corpus extract (MC-577) after TRIzol extraction; Resource Q6 column, salt gradient, 20 mM Tris-HCl pH 7.0; non-reducing 15% SDS-PAGE, anti-TFF1 blot; bands excised and digested with trypsin
T2 sequence: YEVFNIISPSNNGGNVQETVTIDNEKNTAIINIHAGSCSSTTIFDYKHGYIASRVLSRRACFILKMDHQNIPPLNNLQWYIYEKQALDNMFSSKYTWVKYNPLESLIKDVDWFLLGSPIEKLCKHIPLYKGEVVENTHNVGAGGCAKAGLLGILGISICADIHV

[4] = target: TFF1 (Trefoil Factor Family peptide 1), endogenous in human gastric mucosa (human (endogenous in gastric mucosa)) (UniProt P04155); test: SEC, then non-reducing SDS-PAGE with Western blot and release by reduction; human gastric corpus extract (MC-383, aqueous buffer 30 mM NaCl, 20 mM Tris-HCl pH 7.0) on Superdex 75 HL; fractions on non-reducing 15% SDS-PAGE, anti-TFF1 blot; bands eluted and run under reducing conditions
[5] = target: T2, gastrokine 2 (GKN2), endogenous in human gastric mucosa (human (endogenous in gastric mucosa)); test: as above
[6] = target: TFF1 (Trefoil Factor Family peptide 1), endogenous in human gastric mucosa (human (endogenous in gastric mucosa)) (UniProt P04155); test: SEC, then non-reducing versus reducing SDS-PAGE with Western blot; human gastric corpus extract (MC-577) after TRIzol extraction, pellet dissolved in 1% SDS; Superdex 75 HL; fractions analysed under reducing or non-reducing conditions for TFF1 and GKN2; bands eluted and reduced
[7] = target: T2, gastrokine 2 (GKN2), endogenous in human gastric mucosa (human (endogenous in gastric mucosa)); test: as above

Measured: binding

B1: TFF1 (Trefoil Factor Family peptide 1), endogenous in human gastric mucosa, P04155 25-84 (protein)
chain: EAQTETCTVAPRERQNCGFPGVTPSQCANKGCCFDDTVRGVPWCFYPNTIDVPPEEECEF
binds: [1] | [2]

B2: TFF1 (Trefoil Factor Family peptide 1), endogenous in human gastric mucosa (protein, UniProt P04155 25-84)
chain: B1 chain
not listed: [1] | [2]
binds: all other assays above
